From US20230272088A1 (SYNTHEKINE, published 2023)
These are yes or no findings as the source states them, for the method shown. Some binding calls cover weakened binding; strength is not graded here.

T1: extracellular domain of mIFNGR2 (mouse)
T1 sequence (chain, conjugated to Alexa647 (site not stated)): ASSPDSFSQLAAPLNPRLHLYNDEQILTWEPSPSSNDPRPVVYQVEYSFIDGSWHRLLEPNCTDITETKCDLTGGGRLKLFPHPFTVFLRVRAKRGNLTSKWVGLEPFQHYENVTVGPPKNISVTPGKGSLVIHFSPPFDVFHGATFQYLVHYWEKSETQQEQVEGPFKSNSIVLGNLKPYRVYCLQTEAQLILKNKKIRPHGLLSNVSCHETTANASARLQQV

B1: DR952 (VHH)
VHH: QVQLVESGGGLVQAGGFLRLSCAASGRTFSSLAMAWFRQAPGKEREFVAAISRSGGSTDYADSVKGRFTISRDNAKSTLYLQMSSLKPEDTAVYYCAARDYSTLQYYNEYEYSDWGQGTLVTVSS
notes: also called anti-IFNGR2 sdAb VHH DR952
B2: DR953 (VHH)
VHH: QVQLVESGGGLVQAGDSLRLSCAASGPTFSTYAMAWFRQAPGKEREFVAAITQSGRTTYYEDSVKGRFTISKDNAKNTLYLQMNSLQPEDTAVYYCAARDLWSDSPDDWRIYSFWGQGTQVTVSS
notes: also called anti-IFNGR2 sdAb VHH DR953
B3: DR956 (VHH)
VHH: EVQLVESGGGLVQAGGSLRLSCAASGRTFSSLAMAWFRQAPGKEREFVAATTILGGSADYGDPVKGRFTISRDNAKNTVYLQMNSLKPEDTAVYYCTGRRPAPSDNYWSPASYAYWGQGTQVTVSS
notes: also called anti-IFNGR2 sdAb VHH DR956
B4: DR958 (VHH)
VHH: QVQLVESGGGLVQAGDSLTLSCTASGRTFSGYNMGWFRQAPGKERDFVAAINWIGGATYYADSVKGRFTISRDNAKNTVYLQMNSLKPEDTAVYYCHRYSEKFYSGKDYYTRDYDYWGQGTQVTVSS
notes: also called anti-IFNGR2 sdAb VHH DR958
B5: DR927 (VHH)
VHH: QVQLVESGGGLVQAGGSLRLSCAASGRTFTSYAMNWFRQAPGKEREFVAAISWSSGNTYVADSVKGRFAISRDKAKNTMYLQMNSLAPEDTAVYYCAATTIATMSDEYTYWGQGTQVTVSS
notes: also called anti-IFNGR2 sdAb VHH DR927
B6: DR928 (VHH)
VHH: QVQLVESGGGLVQAGGSLRLSCAASGRTFSNYRMGWFRQAPGKEREFVAAISRGGGTTLYADSVKGRFTISRDNAKNTVDLQMNRLKPEDTAVYFCAAGDFSTTWDEYNYWGQGTQVTVSS
notes: also called anti-IFNGR2 sdAb VHH DR928
B7: DR929 (VHH)
VHH: QVQLVESGGGLVQAGGSLRLSCVASGRTFSSYAMGWFRQTPGKEREFVSAISRGGGSTDYADSVKGRFTISRDNAKNTVYLQMNNLKSEDTAVYYCALRAYSGRYYQFLEYDYWGQGTQVTVSS
notes: also called anti-IFNGR2 sdAb VHH DR929
B8: DR930 (VHH)
VHH: EVQLVESGGGLVQAGGSLRLSCTVSGRTFSSYAVAWFRQAPGNVRELAAALSRGGGSAYYTDSVKGRFTISRDNAKNTVYLQMNSLKPEDTAVYYCAARNYDGTYYQENQYNYWGQGTQVTVSS
notes: also called anti-IFNGR2 sdAb VHH DR930
B9: DR931 (VHH)
VHH: QVQLVESGGGLVQAGGSLLLSCAASGRTFSTYAMGWFRQAPGKERMFVAAISVNGGSTYYADSVTGRFTISRDNAKNTMYLQMNNLKPGDTAVYYCAARRPYPGSDFLTWASYDYRGQGTLVTVSS
notes: also called anti-IFNGR2 sdAb VHH DR931
B10: DR932 (VHH)
VHH: QVQLVESGGGLVQAGGFLRLSCAASGRTFSYTTIGWFRQAPGKEREFVAVISAGGGSRDYADALKGRFTISRDNAKKMVYLQMNNLKPEDTAVYYCAVRRNTDTYTTTGDYDYWGQGTQVTVSS
notes: also called anti-IFNGR2 sdAb VHH DR932
B11: DR933 (VHH)
VHH: QVQLVESGGGLVQPGDSLRLSCVASGGTISSLAMGWFRQAPGKEREFVAAISWSGRSTYYVDSVKGRFTISTDNAKNTVYLQMNSLKPEDTAVYYCVAGEDGHSEYDYWGQGTQVTVSS
notes: also called anti-IFNGR2 sdAb VHH DR933
B12: DR934 (VHH)
VHH: QVQLVESGGGLVQAGGSLRLSCAASGRSFANYAMGWFRQAPGKERETVAAISRGGGSTWYADSVKGRFTISKDNAKNTVYLQMNSLKPEDTAIYYCAARSYSGSYTYSFGEYDYWGQGTQVTVSS
notes: also called anti-IFNGR2 sdAb VHH DR934
B13: DR935 (VHH)
VHH: QVQLVESGGGLVQAGGSLRLSCAASGRAFSTYALGWFRQAPGKEREFIAAISRGGGSTDYADSVKGRFTISRDNAKSTVYLQMNSLKPEDTAVYYCAARSYSSSYYYSQYEYDYWGQGTQVTVSS
notes: also called anti-IFNGR2 sdAb VHH DR935
B14: DR936 (VHH)
VHH: EVQLVESGGGLVQAGGSLRLSCAASGRTFSSVAMAWFRQAPGKEREFVSAISSGGGSTDYADSVKGRFTISKDNAKNTMYLQMDSLKPEDTAVYYCAARDYSSRRYYQSRYEYDLWGLGTQVTVSS
notes: also called anti-IFNGR2 sdAb VHH DR936
B15: DR937 (VHH)
VHH: QVQLVESGGGLVQPGGSLRLSCAASGRTFRSYSMGWFRQAPGKEREFVAAISWYSGTTYYADPVKGRFTISRDDAKNTLYLQMNSLKPEDTAVYYCAANEIATMESSNDYWGQGTQVTVSS
notes: also called anti-IFNGR2 sdAb VHH DR937
B16: DR938 (VHH)
VHH: QVQLVESGGGLVQPGGSLRLSCTASGRPRTTYAMGWFRQAPGKEREIVAAISKAGGSTYVADSAKGRFAISKDNAKNTVYLQMNSLKPEDTAVYYCAARAGFAAQIFEYDYWGQGTLVTVSS
notes: also called anti-IFNGR2 sdAb VHH DR938
B17: DR940 (VHH)
VHH: EVQLVESGGRLVQTGGSLRLSCAASGRTFSNYAMGWFRQAPGKEREFVAAISWYSGNTYYADSVKGRFTISRDNAKNTMYLQMNSLKPEDTAVYYCAANQIATMISVGDYWGQGTLVTVSS
notes: also called anti-IFNGR2 sdAb VHH DR940
B18: DR941 (VHH)
VHH: QVQLVESGGGLVEAGGSLRLACAASGSIFRLNLMGWYRQAPGKQRELVAHVGTTGNTAYADSVKGRFTISKDDAKNMVFLQMNSLKPEDTAVYYCYADRWGQFSWGQGTQVTVSS
notes: also called anti-IFNGR2 sdAb VHH DR941
B19: DR943 (VHH)
VHH: QVQLVESGGGLVQAGGSLRLSCVASGRTVGYGMAWFRQAPGKQRDVVAAITWSGTSTYYPDSVKGRFTISRDNAKNTMYLQMSSLKPEDTAVYYCAAGSRRRVGVDVGGYDYWGQGTQVTVSS
notes: also called anti-IFNGR2 sdAb VHH DR943
B20: DR946 (VHH)
VHH: QVQLVESGGGLVQPGESLRLSCAASGPFTRYAMGWFRQAPGKEREFVAAISWSSGNTYYVDSVKGRFTISRDNAKNTMYLQMNSLKPEDTAVYYCAANEVATMSGPDDYWGQGTQVTVSS
notes: also called anti-IFNGR2 sdAb VHH DR946
B21: DR947 (VHH)
VHH: QVQLVESGGGLVQAGGSLRLSCAASGGSFGRYTMGWYRQAPGKEREFVAVISWSGTNTYYADSVKGRFTISRDNAKNTMYLQMNDLKPEDTAVYYCAARETYYSHWDERMEYDYWGQGTQVTVSS
notes: also called anti-IFNGR2 sdAb VHH DR947
B22: DR948 (VHH)
VHH: QVQLVESGGGLVQAGDSLRLSCVASGSIDSSYYVSWFRQAPGKERDLVAAINWGDSRTAYADSVKGRFTISRDNAKNTVYLQMHSLRPNDTAVYYCASRIGLGGPVVAAPTRYPYWGQGTLVTVSS
notes: also called anti-IFNGR2 sdAb VHH DR948

Experiments:
[1] = biological target: T1, extracellular domain of mIFNGR2 (mouse); experiment: flow cytometry, yeast-displayed VHH, 100 nM Alexa647-conjugated antigen
[2] = biological target: T1, extracellular domain of mIFNGR2 (mouse); experiment: flow cytometry

Binder | binding [1] | binding [2]
B1 | binds | binds
B2 | binds | binds
B3 | binds | binds
B4 | binds | binds
B5 | binds | binds
B6 | binds | binds
B7 | binds | binds
B8 | binds | binds
B9 | binds | binds
B10 | binds | binds
B11 | binds | binds
B12 | binds | binds
B13 | binds | binds
B14 | binds | binds
B15 | binds | binds
B16 | binds | binds
B17 | binds | binds
B18 | binds | binds
B19 | binds | binds
B20 | binds | binds
B21 | binds | binds
B22 | binds | binds
